Earlier results in patent US20130266658A1, “Method of producing a PPI-containing pharmaceutical preparation” (Temmler Werke GmbH, priority 2010, published 2013).

Settings: aqueous solution, pH values below 2

For `COc1ccc2[nH]c([S+]([O-])Cc3ncc(C)c(OC)c3C)nc2c1` (stereo not shown) [omeprazole], the half-life is listed as “less than 10 minutes”.
